No constants are given. Whether binding was seen depends on the method and setting. Some binding calls cover weakened binding; strength is not graded here.
What was measured:
[1] = molecular target: CD40 CFP and YFP chimeras (FIG. 3C) (UniProt P25942); assay: flow cytometric FRET between CFP and YFP fusions
[2] = molecular target: DR4 CFP and YFP chimeras (FIG. 3C) (UniProt O00220); assay: flow cytometric FRET between CFP and YFP fusions
[3] = molecular target: N-terminal region of the ECD of p80 (UniProt P20333); assay: yeast two-hybrid

Sequences of proteins named here, by UniProt entry; tags and fusion partners are left off. A change or cut given only in a name is not applied to a line headed by its entry. Residues count along the entry.
UniProt P25942, residues 21-222: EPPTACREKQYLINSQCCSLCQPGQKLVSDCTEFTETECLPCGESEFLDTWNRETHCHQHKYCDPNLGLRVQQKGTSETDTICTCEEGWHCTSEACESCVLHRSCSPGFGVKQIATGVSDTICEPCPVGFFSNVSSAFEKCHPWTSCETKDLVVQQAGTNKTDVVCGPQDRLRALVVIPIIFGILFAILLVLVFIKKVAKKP
UniProt O00220, residues 24-270: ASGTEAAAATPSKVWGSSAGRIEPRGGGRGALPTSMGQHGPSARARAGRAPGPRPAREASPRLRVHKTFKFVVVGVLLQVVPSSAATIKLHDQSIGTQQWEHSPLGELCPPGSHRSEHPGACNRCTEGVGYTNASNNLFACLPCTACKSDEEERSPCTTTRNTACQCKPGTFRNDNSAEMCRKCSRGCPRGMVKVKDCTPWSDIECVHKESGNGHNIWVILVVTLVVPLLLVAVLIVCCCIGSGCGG
UniProt P20333, residues 23-76: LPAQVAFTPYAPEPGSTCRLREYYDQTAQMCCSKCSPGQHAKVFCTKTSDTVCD

Question: For “CD40 CFP and YFP chimeras (FIG. 3C) (from UniProt P25942 21-222) (receptor)”, which binding [1] is on record?
Answer: binds

Question: How did the binding [2] turn out when “DR4 CFP and YFP chimeras (FIG. 3C) (from UniProt O00220 24-270) (receptor)” was run?
Answer: binds

Question: For “N-terminal region of the ECD of p80 (from UniProt P20333 23-76) (receptor)”, which binding [3] is on record?
Answer: binds

Reference: patent US20030108992A1
